Source: article PMC10834496
No constants are given. Whether binding was seen depends on the method and setting. Binding seen in cells or lysates may run through a third protein. Some entries that bind do so weakly or less than the wild type. For some assays here: Where a sequence is shown, tags or fusion partners need not be part of it. One block for each molecule: values may come before it.

By UniProt entry, the sequences of proteins in these tests, tags left out. Where a name states a change or a piece, a line headed by the entry shows the natural chain unless it says otherwise. Residues count along the entry.
UniProt Q9ERC8: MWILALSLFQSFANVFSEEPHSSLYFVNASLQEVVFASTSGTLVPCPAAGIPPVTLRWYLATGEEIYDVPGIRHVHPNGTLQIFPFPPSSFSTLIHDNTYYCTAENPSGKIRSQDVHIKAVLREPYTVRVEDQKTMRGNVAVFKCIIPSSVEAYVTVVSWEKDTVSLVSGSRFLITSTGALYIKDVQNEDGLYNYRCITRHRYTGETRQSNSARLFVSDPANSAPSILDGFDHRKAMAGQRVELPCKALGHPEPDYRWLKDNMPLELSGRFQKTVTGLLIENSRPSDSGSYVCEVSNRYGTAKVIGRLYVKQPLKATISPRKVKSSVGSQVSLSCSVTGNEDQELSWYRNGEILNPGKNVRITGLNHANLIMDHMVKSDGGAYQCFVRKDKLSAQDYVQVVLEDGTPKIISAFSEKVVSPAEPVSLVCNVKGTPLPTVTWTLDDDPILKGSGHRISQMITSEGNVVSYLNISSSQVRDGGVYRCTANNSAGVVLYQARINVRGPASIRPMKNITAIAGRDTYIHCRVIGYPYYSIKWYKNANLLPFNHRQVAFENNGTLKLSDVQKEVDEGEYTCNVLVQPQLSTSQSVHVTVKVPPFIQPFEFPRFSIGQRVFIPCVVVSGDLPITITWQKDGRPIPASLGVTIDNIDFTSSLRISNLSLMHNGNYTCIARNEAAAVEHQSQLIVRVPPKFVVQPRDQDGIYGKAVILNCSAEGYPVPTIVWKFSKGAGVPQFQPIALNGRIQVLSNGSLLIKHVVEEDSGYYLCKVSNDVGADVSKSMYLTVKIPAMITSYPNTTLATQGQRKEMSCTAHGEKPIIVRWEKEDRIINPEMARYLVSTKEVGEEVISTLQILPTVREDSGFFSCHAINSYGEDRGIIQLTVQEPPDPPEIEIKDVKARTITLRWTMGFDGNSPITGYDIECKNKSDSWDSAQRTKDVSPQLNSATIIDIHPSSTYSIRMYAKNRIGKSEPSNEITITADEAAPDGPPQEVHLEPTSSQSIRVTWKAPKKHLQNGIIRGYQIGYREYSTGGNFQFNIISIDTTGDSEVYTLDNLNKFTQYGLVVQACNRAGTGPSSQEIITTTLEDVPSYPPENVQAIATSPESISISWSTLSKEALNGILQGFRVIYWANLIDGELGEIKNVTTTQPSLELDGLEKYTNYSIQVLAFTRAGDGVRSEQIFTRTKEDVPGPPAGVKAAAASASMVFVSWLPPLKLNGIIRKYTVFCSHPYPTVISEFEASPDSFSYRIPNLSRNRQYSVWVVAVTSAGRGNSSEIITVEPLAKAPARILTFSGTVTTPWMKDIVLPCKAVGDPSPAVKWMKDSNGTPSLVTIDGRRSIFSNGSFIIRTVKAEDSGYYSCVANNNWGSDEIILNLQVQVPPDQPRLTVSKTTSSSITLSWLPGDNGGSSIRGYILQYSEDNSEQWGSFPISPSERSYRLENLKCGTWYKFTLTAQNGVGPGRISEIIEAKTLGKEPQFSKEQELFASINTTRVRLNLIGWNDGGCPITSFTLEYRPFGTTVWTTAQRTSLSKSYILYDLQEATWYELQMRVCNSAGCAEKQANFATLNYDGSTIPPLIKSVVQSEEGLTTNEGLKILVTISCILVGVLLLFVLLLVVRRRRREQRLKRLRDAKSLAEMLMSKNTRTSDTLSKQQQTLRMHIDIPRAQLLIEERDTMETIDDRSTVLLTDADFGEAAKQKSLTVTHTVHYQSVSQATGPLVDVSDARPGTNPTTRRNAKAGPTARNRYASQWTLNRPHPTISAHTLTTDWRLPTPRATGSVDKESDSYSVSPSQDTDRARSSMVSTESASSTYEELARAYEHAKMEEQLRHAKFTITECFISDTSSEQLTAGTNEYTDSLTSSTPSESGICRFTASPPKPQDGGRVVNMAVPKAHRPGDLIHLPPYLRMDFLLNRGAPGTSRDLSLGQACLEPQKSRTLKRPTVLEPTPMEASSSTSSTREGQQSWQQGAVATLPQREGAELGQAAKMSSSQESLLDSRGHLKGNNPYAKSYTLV
Down syndrome cell adhesion molecule (DSCAM), endogenous (mouse (endogenous in cerebellum)): residues 18-2013 of Q9ERC8

Tests used:
[1] = target: T1, full-length GLAST fused with FLAG at the C-terminus (GLAST-FLAG) (mouse) (UniProt P56564); test: co-IP; lysates of COS-7 cells co-expressing Dscam-mEGFP constructs and GLAST-FLAG (20 mM Tris, 150 mM NaCl, 1 mM EDTA, 0.1% NP-40, pH 7.4, 4 °C); IP with anti-FLAG, protein A Sepharose; blots with anti-GFP and anti-Flag
T1 sequence: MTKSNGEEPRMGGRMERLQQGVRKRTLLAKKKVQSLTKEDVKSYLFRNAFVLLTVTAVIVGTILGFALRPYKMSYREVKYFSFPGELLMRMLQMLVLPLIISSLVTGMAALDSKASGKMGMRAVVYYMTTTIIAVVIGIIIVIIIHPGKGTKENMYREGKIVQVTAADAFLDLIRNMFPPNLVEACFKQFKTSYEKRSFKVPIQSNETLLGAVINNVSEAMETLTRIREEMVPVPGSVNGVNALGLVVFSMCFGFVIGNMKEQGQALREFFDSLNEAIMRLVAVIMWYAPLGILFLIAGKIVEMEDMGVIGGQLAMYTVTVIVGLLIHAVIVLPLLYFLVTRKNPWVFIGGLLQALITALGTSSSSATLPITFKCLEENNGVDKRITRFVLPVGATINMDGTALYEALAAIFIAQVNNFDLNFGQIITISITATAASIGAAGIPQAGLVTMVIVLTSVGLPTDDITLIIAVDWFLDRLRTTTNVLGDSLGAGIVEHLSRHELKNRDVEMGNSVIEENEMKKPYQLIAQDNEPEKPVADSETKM

[2] = target: T2, glutamate-aspartate transporter (GLAST), endogenous (mouse (endogenous in cerebellum and brain)) (UniProt P56564); test: co-IP; rough synaptosomal fraction of P21 mouse cerebellum in ULTRARIPA Lipid Raft B-buffer; IP with rabbit anti-DSCAM or anti-EAAT1 (GLAST) or control rabbit IgG, protein G Sepharose, 4 °C; western blot
T2 sequence: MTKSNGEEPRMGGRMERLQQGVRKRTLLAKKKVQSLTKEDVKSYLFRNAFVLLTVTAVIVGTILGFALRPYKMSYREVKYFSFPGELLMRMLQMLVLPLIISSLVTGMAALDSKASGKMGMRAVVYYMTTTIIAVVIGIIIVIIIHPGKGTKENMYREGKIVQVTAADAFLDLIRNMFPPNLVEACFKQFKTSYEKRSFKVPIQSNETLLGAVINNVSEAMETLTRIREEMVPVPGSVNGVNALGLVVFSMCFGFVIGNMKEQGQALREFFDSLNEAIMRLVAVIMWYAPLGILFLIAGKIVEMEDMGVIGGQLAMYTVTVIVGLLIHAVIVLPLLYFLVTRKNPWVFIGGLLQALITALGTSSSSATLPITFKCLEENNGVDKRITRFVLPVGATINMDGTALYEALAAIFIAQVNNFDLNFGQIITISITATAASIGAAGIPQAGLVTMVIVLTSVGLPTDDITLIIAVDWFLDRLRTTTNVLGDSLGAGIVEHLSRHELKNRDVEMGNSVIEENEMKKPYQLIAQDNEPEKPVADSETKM

[3] = target: endogenous DSCAM tagged with three consecutive ALFA tags (DSCAM-ALFA) (mouse (endogenous in brain of Dscam^ALFA/ALFA mice)) (UniProt Q9ERC8); test: co-IP; whole-brain lysate of P10-P11 Dscam^ALFA/ALFA or Dscam^+/+ mice in ULTRARIPA Lipid Raft B-buffer; IP with anti-ALFA, anti-GLAST or control rabbit IgG, Dynabeads Protein G, 4 °C; western blot
[4] = target: Down syndrome cell adhesion molecule (DSCAM), endogenous (mouse (endogenous in cerebellum)) (UniProt Q9ERC8); test: co-IP; rough synaptosomal fraction of P21 mouse cerebellum in ULTRARIPA Lipid Raft B-buffer; IP with rabbit anti-DSCAM or anti-EAAT1 (GLAST) or control rabbit IgG, protein G Sepharose, 4 °C; western blot

binding [1]: binds
Molecule: DSCAM deletion construct lacking the intercellular domain, fused with mEGFP (ΔC-mEGFP) (from UniProt Q9ERC8 18-1615) (domain or fragment)

binding [1]: binds
Molecule: full-length DSCAM fused with mEGFP (Full-mEGFP) (from UniProt Q9ERC8 18-2013)

binding [2]: binds
Molecule: Down syndrome cell adhesion molecule (DSCAM), endogenous (from UniProt Q9ERC8 18-2013)

binding [3]: binds
binding [4]: binds
B1: glutamate-aspartate transporter (GLAST), endogenous (protein, UniProt P56564 1-543)
chain: MTKSNGEEPRMGGRMERLQQGVRKRTLLAKKKVQSLTKEDVKSYLFRNAFVLLTVTAVIVGTILGFALRPYKMSYREVKYFSFPGELLMRMLQMLVLPLIISSLVTGMAALDSKASGKMGMRAVVYYMTTTIIAVVIGIIIVIIIHPGKGTKENMYREGKIVQVTAADAFLDLIRNMFPPNLVEACFKQFKTSYEKRSFKVPIQSNETLLGAVINNVSEAMETLTRIREEMVPVPGSVNGVNALGLVVFSMCFGFVIGNMKEQGQALREFFDSLNEAIMRLVAVIMWYAPLGILFLIAGKIVEMEDMGVIGGQLAMYTVTVIVGLLIHAVIVLPLLYFLVTRKNPWVFIGGLLQALITALGTSSSSATLPITFKCLEENNGVDKRITRFVLPVGATINMDGTALYEALAAIFIAQVNNFDLNFGQIITISITATAASIGAAGIPQAGLVTMVIVLTSVGLPTDDITLIIAVDWFLDRLRTTTNVLGDSLGAGIVEHLSRHELKNRDVEMGNSVIEENEMKKPYQLIAQDNEPEKPVADSETKM
